Data taken from PMC6593412.
Results are given in words; binding and its absence hold for the method and conditions named. Some results given as binding are weak or reduced against the parent protein; the word gives no strength. Values belong to the binder of their own block, whether it stands above or below them.

Biological target: T1, bovine asialofetuin (bovine) (UniProt P12763)
T1 sequence (chain, glycoprotein, asialo form (asialofetuin)): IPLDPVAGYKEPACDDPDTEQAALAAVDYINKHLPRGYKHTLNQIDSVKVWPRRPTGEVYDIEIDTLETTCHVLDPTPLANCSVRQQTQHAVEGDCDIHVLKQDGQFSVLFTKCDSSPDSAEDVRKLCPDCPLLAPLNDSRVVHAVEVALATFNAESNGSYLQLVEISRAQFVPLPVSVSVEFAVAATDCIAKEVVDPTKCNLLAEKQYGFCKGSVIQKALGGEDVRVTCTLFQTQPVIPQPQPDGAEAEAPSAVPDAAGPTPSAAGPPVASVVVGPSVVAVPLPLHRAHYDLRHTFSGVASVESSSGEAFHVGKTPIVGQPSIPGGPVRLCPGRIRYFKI
Assay: ELISA; ASF (50 uL of 10 ug/mL in sodium carbonate buffer pH 9.6) immobilised on microtiter plates overnight; blocked with 5% BSA in PBST; different amounts of Gal-13 or Gal-14 incubated 1 h in PBST with 0.5% BSA; detected with anti-His6-HRP, TMB, 450 nm; also after pre-incubation of 50 ug/mL galectin on lactose-agarose beads; both purified

binding: binds
B1: Recombinant galectin-14 (protein, UniProt Q8TCE9 1-139)
chain: MSSLPVPYTLPVSLPVGSCVIITGTPILTFVKDPQLEVNFYTGMDEDSDIAFQFRLHFGHPAIMNSCVFGIWRYEEKCYYLPFEDGKPFELCIYVRHKEYKVMVNGQRIYNFAHRFPPASVKMLQVFRDISLTRVLISD

binding: binds
B2: Recombinant galectin-13 (protein, UniProt Q9UHV8 1-139)
chain: MSSLPVPYKLPVSLSVGSCVIIKGTPIHSFINDPQLQVDFYTDMDEDSDIAFRFRVHFGNHVVMNRREFGIWMLEETTDYVPFEDGKQFELCIYVHYNEYEIKVNGIRIYGFVHRIPPSFVKMVQVSRDISLTSVCVCN
